# Screen size: about 390,000 compounds; about 910 (0.23%) were called active. This list was built around the results that the source calls inconclusive (neither active nor inactive); the mix of calls is not that of the screen. Calls come from the whole dose curve; as a rule, active = well fitted inhibition curve with a large enough effect; inconclusive = small, poorly fitted or top-dose-only effect; inactive = no such curve, though single readings can be large or run the other way. A potency beside an inconclusive call is a rough fit, not a confirmed value.
# Amino acid sequences for entries named in this document (tags omitted). A change or cut given only in a name is not applied to a line headed by its entry.
# UniProt O94782: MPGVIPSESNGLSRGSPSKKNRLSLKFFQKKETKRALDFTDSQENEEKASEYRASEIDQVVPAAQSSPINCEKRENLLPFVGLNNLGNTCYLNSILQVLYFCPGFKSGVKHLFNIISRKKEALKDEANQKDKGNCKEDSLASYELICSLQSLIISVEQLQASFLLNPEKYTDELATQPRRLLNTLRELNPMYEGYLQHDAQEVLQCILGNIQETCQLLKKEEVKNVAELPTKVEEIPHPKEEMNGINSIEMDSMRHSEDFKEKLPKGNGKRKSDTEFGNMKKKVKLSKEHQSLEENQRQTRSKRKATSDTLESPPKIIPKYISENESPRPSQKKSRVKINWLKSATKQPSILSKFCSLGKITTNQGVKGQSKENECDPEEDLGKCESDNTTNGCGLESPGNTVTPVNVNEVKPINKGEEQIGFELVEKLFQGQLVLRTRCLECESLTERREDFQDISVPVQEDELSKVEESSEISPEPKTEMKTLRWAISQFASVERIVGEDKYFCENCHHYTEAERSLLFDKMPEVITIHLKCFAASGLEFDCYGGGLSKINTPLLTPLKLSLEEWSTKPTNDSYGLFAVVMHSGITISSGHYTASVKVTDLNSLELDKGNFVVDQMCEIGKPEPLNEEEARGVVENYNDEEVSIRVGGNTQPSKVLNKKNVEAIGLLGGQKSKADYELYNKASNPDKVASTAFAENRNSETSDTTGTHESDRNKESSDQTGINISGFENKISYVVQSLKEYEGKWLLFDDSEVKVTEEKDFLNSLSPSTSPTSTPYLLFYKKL
# Target: Ubiquitin carboxyl-terminal hydrolase 1 (Homo sapiens) (UniProt O94782)
# Assay: Inhibitors of USP1/UAF1: Primary Screen; note: nearly all actives have a fitted effect of over 60% in size
# Details: recombinant USP1/UAF1, Ub-Rhodamine cleavage fluorescence; activity change, negative = inhibition: at 57.1 µM (top of the series)
# In short: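 USP1/UAF1 complex at 1 nM was preincubated with compound for 15 min at room temperature, then Ub-Rho substrate (150nM final) was added. Fluorescence (480/540 nm) was read kinetically, 6 reads every 60 seconds.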
# % is set by controls: 0 for no effect and ±100 for the full control effect; potency is the fitted concentration of half-maximal effect.
SMILES,Potency,"activity change, negative = inhibition"
COc1ccccc1-n1c(/C=C/c2ccccn2)nc2ccccc2c1=O,"inconclusive: 1.78 µM [inhibitor, partial curve]",–
Cc1ccc(-n2c(O)c(C=NCc3ccco3)c(=O)[nH]c2=S)cc1C,"inconclusive: 8.91 µM [inhibitor, partial curve, poor fit]",–
COc1cccc(N2C(=O)CC(=O)NC2=O)c1,inactive,–
CCOC(=O)c1c(-n2c(C)cc(C=C3C(=O)NC(=S)NC3=O)c2C)sc2c1CCCC2,"inconclusive: 25.1 µM [inhibitor, partial curve]",–
CC1CCC(C)(NS(=O)(=O)OCC(Cl)(Cl)Cl)CC1 (stereo not given),"inconclusive: 2.51 µM [inhibitor, full curve]",–
N#Cc1cc2c(nc1SCC(=O)Nc1ccc(C(F)(F)F)cc1)C1CCN2CC1,inactive,–
COc1ccc(C(=O)/C=C/c2cccs2)c(OC(=O)N2CCOCC2)c1,"inconclusive: 5.01 µM [inhibitor, partial curve]",–
CC(=O)O[C@H]1CC[C@@]2(C)C(=CC(=O)C3C2CC[C@@]2(C)C3C[C@H](OC(C)=O)[C@@H]2OC(C)=O)C1 (stereo not given in full),"inconclusive: 44.7 µM [inhibitor, single point]",–
Cc1cccc(-n2c(O)c(/C=C/C=Nc3ccccc3)c(=O)[nH]c2=O)c1,"inconclusive: 28.2 µM [inhibitor, partial curve]",–
C[C@]12CCC3C(CC[C@H]4C[C@@H](O)CC[C@]34C)[C@H]1CC[C@H]2O (stereo not given in full),"inconclusive: 7.08 µM [inhibitor, single point]",–
Cc1ccc(S(=O)(=O)N(C)C[C@H]2Oc3cc(Br)ccc3S(=O)(=O)N([C@H](C)CO)C[C@H]2C)cc1,"inconclusive: 44.7 µM [inhibitor, partial curve]",–
CC(=O)C1C(=O)NC23CCCCC2C1c1ccccc1O3 (stereo not given),"inconclusive: 0.631 µM [inhibitor, full curve, poor fit]",–
O=C1NC(=S)SC1=Cc1ccc(N(CCCl)CCCl)cc1,"inconclusive: 31.6 µM [inhibitor, partial curve, poor fit]",–
Cc1cc(N(CCCl)CCCl)ccc1C=Cc1ccncn1,"inconclusive: 31.6 µM [inhibitor, partial curve, poor fit]",–
Brc1ccccc1Cn1c(-c2cncs2)nc2ccccc21,"inconclusive: 39.8 µM [inhibitor, partial curve, poor fit]",–
CCCCNC(=O)c1c(N)n(CCCOC)c2nc3ccccc3nc12,active: 11.2 µM,–
O=[N+]([O-])c1ccc(-c2ccc(C=Nc3cccc4ccccc34)o2)cc1,"inconclusive: 25.1 µM [inhibitor, single point]",–
O=c1[nH]c(=S)[nH]c(O)c1N=Nc1ccc2c(c1)OCCO2,"inconclusive: 39.8 µM [inhibitor, partial curve]",–
CC1CCC2(CC1)NC(=O)N(NC(=O)CCl)C2=O (stereo not given),"inconclusive: 44.7 µM [inhibitor, partial curve, poor fit]",–
Cn1nnc2cc(NC(=O)Nc3cccc(Cl)c3)ccc21,"inconclusive: 10 µM [inhibitor, partial curve, poor fit]",–

SMILES,Potency,"activity change, negative = inhibition"
CC(C)(O)C(=O)Nc1ccc([N+](=O)[O-])c(C(F)(F)F)c1,inactive,–
CCc1c(C)nc(N)nc1N1N=C1SC(C(C)=O)C(C)=O,inactive,–
CC(N)Cc1c[nH]c2ccc(OCc3cccs3)cc12 (stereo not given),inactive,–
Fc1ccccc1CCNCc1cccc(Cl)c1Cl,"inconclusive: 50.1 µM [inhibitor, single point]",–
CN1CC[C@]23c4c5ccc(OC6OC(C(=O)O)[C@@H](O)C(O)[C@H]6O)c4OC2C(O)C=CC3[C@H]1C5 (stereo not given in full),"inconclusive: 31.6 µM [inhibitor, single point]",–
CNC(=S)N(C)CCc1cc2c(c(OC)c1/C=C1/C(=O)NC(=O)N(C)C1=O)OCO2,inactive,–
CC(=O)C1=C(C)OC(N)=C(C(=O)OC(C)C)C12C(=O)Nc1ccccc12 (stereo not given),"inconclusive: 0.282 µM [inhibitor, partial curve, poor fit]",–
Cn1c(O)c(C=Nc2ccccc2)c(=O)n(C)c1=O,"inconclusive: 28.2 µM [inhibitor, partial curve]",–
CCOc1ccc(N2C(=O)NC(=O)/C(=C\c3ccc(N4CCCCC4)o3)C2=O)cc1,"inconclusive: 35.5 µM [inhibitor, partial curve]",–
Cc1cccc(-n2c(O)c(C=NC34CN5CN(CN(C5)C3)C4)c(=O)[nH]c2=O)c1,"inconclusive: 0.355 µM [inhibitor, full curve, poor fit]",–
CCN(CC)CCNCC(=O)Nc1ccc(Cl)cc1C(=O)c1ccccc1,inactive,–
O=C(NN=Cc1ccc(N(CCCl)CCCl)cc1)c1cccc([N+](=O)[O-])c1,"inconclusive: 50.1 µM [inhibitor, partial curve, poor fit]",–
Clc1cc(I)cc(Cl)c1NC1=NCCN1,"inconclusive: 0.158 µM [inhibitor, full curve, poor fit]",–
O=C(O)CCn1cc(C=C2C(=O)NC(=S)NC2=O)c(-c2ccccc2)n1,"inconclusive: 44.7 µM [inhibitor, partial curve, poor fit]",–
O=C(N[C@H]1CP(=O)(Oc2ccccc2)O[C@H](COCc2ccccc2)[C@H]1O)C(Cl)(Cl)Cl (stereo not given in full),"inconclusive: 0.126 µM [inhibitor, full curve, poor fit]",–
O=C1NC(=S)N(c2ccccc2)C(=O)/C1=C/c1ccco1,"inconclusive: 31.6 µM [inhibitor, partial curve, poor fit]",–
CCN(CC)c1ccc(/C=C/[N+](=O)[O-])cc1,–,inconclusive: -29% [inhibitor]
CCCn1c(C)cc(C=O)c1C,"inconclusive: 2.82 µM [inhibitor, full curve, poor fit]",–
Cc1ccc(CCNC(=O)Cn2nc(C)c3c(C)n(-c4ccc(C)cc4)nc3c2=O)cc1,"inconclusive: 10 µM [inhibitor, single point]",–
COc1cccc2c1N=C1CCCC3CN(C(C)=O)CCC123 (stereo not given),"inconclusive: 56.2 µM [inhibitor, partial curve, poor fit]",–

# Reprinted at random: two records from the list, in no set order.
SMILES,Potency,"activity change, negative = inhibition"
O=C(N[C@H]1CP(=O)(Oc2ccccc2)O[C@H](COCc2ccccc2)[C@H]1O)C(Cl)(Cl)Cl (stereo not given in full),"inconclusive: 0.126 µM [inhibitor, full curve, poor fit]",–
O=C(NN=Cc1ccc(N(CCCl)CCCl)cc1)c1cccc([N+](=O)[O-])c1,"inconclusive: 50.1 µM [inhibitor, partial curve, poor fit]",–

# Reference: PubChem BioAssay AID743255 (National Center for Advancing Translational Sciences (NCATS), 2014)
